The values that follow come from publication PMC11791078, “RECQ4-MUS81 interaction contributes to telomere maintenance with implications to Rothmund-Thomson syndrome” (Nature Communications, 2025).

The assay addresses T1, EGFP-RECQ4-WT (UniProt O94761).
T1 sequence: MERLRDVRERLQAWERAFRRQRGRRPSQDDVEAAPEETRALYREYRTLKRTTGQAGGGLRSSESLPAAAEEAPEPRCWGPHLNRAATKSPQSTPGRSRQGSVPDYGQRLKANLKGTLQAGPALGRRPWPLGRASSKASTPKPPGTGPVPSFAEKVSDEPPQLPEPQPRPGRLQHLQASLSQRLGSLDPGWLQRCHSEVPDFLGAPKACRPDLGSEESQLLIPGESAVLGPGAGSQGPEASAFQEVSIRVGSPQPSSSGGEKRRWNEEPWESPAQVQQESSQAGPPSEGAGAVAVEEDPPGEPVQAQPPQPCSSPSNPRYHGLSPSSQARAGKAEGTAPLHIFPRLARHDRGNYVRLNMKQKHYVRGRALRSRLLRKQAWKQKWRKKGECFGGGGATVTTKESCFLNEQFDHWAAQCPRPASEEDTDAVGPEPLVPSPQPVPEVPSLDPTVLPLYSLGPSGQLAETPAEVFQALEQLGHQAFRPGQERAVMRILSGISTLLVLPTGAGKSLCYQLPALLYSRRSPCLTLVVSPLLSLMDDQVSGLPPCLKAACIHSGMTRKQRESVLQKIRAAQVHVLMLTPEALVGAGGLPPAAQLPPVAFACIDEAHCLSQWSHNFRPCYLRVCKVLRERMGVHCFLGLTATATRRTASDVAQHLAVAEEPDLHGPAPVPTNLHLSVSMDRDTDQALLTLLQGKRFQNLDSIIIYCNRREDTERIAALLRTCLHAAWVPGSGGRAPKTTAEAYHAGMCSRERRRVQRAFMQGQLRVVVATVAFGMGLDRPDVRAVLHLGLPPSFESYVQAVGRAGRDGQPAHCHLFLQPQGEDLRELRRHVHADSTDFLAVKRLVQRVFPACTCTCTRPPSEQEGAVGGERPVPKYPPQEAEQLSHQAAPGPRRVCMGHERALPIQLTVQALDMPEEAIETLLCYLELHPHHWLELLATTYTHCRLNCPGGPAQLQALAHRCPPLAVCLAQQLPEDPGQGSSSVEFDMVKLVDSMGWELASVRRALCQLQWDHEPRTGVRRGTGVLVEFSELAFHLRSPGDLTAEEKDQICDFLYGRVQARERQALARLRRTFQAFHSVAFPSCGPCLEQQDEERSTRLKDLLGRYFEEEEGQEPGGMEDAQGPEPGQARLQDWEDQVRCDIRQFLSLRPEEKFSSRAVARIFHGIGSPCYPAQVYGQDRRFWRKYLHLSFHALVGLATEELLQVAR
Briefly: co-IP; GFP-Trap magnetic particles, 500 µg whole cell lysate of Flp-In T-REx U2OS cells expressing EGFP-RECQ4 constructs, 1 h at 4 °C, three washes, western blot; also cells synchronised in G1/S, S, G2/M and M phase. In general terms: Immunoblotting shows a protein as a band on a membrane.

These are yes or no findings as the source states them, for the method shown. In cells and extracts the contact can be indirect. Some results given as binding are weak or reduced against the parent protein; the word gives no strength. Sequences can lack the tags named with a protein.

B1: MUS81 (protein, UniProt Q96NY9 1-551)
chain: MAAPVRLGRKRPLPACPNPLFVRWLTEWRDEATRSRRRTRFVFQKALRSLRRYPLPLRSGKEAKILQHFGDGLCRMLDERLQRHRTSGGDHAPDSPSGENSPAPQGRLAEVQDSSMPVPAQPKAGGSGSYWPARHSGARVILLVLYREHLNPNGHHFLTKEELLQRCAQKSPRVAPGSARPWPALRSLLHRNLVLRTHQPARYSLTPEGLELAQKLAESEGLSLLNVGIGPKEPPGEETAVPGAASAELASEAGVQQQPLELRPGEYRVLLCVDIGETRGGGHRPELLRELQRLHVTHTVRKLHVGDFVWVAQETNPRDPANPGELVLDHIVERKRLDDLCSSIIDGRFREQKFRLKRCGLERRVYLVEEHGSVHNLSLPESTLLQAVTNTQVIDGFFVKRTADIKESAAYLALLTRGLQRLYQGHTLRSRPWGTPGNPESGAMTSPNPLCSLLTFSDFNAGAIKNKAQSVREVFARQLMQVRGVSGEKAAALVDRYSTPASLLAAYDACATPKEQETLLSTIKCGRLQRNLGPALSRTLSQLYCSYGPLT
As to B1, the binding entry is listed as “binds”.
